In the supplement of paper PMC10849652:
The other results are listed elsewhere or left out. Residues, ends and D or L forms follow the SMILES beside them. *: point of attachment. Cbz = O=C(OCc1ccccc1)*

Sequences of proteins named here, by UniProt entry; tags and fusion partners are left off. A change or cut given only in a name is not applied to a line headed by its entry.
UniProt Q14165: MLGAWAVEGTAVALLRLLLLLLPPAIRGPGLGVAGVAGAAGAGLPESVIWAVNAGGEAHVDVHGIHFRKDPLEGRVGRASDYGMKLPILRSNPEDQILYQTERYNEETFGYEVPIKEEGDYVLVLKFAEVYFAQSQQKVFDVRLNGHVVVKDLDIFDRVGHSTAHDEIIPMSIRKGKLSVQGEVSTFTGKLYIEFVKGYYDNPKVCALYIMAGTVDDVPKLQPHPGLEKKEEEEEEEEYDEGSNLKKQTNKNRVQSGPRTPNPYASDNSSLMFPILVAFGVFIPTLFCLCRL
UniProt P22033: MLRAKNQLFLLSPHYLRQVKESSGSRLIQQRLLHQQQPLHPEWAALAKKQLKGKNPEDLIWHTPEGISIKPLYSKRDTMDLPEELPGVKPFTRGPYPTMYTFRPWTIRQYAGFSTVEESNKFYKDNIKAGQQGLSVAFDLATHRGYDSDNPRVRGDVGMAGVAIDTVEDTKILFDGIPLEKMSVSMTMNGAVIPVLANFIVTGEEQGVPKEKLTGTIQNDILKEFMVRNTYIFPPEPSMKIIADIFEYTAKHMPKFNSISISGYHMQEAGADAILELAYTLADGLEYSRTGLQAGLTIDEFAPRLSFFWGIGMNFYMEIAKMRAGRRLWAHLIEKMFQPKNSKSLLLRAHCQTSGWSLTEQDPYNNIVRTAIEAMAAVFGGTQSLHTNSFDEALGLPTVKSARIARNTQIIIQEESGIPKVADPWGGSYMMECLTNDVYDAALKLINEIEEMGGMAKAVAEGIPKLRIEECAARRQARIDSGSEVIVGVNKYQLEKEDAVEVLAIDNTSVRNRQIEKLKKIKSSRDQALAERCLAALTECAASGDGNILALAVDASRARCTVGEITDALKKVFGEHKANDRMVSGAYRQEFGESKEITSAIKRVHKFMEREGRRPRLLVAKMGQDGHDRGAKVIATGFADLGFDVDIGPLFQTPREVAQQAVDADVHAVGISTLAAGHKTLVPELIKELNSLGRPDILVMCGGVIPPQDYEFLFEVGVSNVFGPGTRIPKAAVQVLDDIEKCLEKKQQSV
UniProt P29372, whole entry, looked up: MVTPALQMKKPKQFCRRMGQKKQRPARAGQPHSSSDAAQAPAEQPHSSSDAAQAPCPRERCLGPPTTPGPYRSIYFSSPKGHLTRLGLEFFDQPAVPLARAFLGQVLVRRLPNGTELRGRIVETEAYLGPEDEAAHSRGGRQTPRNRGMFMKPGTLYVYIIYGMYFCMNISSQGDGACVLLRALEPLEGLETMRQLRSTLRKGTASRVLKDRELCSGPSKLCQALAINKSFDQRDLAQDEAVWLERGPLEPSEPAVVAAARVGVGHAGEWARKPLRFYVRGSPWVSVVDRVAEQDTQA
UniProt Q9HC36: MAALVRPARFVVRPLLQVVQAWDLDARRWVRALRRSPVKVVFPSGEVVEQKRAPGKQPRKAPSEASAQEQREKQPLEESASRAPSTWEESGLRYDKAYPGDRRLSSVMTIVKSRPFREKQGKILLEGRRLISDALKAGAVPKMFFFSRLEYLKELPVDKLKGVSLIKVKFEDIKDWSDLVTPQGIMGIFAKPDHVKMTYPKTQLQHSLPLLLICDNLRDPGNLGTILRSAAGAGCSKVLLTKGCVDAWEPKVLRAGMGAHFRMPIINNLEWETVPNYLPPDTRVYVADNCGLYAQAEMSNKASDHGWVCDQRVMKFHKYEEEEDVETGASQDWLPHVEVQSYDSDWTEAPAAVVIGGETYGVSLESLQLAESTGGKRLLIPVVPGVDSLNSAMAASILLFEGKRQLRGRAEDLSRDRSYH
UniProt Q6WCQ1: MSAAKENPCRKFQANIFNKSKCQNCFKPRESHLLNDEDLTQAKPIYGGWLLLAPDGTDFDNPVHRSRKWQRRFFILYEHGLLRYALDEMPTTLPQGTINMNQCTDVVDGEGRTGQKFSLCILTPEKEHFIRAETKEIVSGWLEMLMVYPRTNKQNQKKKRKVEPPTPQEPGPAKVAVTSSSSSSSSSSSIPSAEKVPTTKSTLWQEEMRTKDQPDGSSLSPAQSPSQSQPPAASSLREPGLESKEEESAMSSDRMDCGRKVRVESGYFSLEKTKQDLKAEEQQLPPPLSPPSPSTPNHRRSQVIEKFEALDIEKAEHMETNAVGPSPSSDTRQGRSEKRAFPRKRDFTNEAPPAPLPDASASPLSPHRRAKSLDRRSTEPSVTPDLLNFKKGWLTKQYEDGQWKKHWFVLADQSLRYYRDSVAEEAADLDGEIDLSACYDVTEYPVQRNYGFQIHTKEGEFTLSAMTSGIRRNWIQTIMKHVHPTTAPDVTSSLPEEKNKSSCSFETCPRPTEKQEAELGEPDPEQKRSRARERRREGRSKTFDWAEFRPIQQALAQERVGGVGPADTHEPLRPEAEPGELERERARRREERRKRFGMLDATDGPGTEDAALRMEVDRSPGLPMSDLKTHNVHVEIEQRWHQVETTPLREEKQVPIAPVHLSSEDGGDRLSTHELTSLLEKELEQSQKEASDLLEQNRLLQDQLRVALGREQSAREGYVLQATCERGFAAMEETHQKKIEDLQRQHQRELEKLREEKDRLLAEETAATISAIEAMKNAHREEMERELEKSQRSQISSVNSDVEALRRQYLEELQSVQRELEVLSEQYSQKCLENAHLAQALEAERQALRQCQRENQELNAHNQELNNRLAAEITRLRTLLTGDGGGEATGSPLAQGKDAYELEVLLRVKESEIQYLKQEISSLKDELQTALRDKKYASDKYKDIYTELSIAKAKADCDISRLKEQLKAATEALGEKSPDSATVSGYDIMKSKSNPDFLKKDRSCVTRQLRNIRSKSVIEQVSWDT
UniProt Q5TGZ0: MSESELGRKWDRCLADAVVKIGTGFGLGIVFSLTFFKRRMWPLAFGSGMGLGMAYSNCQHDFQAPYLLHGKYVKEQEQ
UniProt Q9UNW1: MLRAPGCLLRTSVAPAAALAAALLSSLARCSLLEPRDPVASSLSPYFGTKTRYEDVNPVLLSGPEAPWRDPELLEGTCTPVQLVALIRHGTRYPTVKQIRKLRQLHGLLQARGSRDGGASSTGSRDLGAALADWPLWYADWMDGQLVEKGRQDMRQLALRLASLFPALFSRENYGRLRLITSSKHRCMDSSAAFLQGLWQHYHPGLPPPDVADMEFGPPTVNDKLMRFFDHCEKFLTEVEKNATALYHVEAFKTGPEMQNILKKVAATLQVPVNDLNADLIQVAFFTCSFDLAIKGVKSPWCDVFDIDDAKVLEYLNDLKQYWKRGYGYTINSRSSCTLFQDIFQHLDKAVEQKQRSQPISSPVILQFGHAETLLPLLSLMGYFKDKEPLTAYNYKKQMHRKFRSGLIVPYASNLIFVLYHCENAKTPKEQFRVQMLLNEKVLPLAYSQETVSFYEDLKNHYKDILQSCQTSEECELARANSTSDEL
UniProt P49959: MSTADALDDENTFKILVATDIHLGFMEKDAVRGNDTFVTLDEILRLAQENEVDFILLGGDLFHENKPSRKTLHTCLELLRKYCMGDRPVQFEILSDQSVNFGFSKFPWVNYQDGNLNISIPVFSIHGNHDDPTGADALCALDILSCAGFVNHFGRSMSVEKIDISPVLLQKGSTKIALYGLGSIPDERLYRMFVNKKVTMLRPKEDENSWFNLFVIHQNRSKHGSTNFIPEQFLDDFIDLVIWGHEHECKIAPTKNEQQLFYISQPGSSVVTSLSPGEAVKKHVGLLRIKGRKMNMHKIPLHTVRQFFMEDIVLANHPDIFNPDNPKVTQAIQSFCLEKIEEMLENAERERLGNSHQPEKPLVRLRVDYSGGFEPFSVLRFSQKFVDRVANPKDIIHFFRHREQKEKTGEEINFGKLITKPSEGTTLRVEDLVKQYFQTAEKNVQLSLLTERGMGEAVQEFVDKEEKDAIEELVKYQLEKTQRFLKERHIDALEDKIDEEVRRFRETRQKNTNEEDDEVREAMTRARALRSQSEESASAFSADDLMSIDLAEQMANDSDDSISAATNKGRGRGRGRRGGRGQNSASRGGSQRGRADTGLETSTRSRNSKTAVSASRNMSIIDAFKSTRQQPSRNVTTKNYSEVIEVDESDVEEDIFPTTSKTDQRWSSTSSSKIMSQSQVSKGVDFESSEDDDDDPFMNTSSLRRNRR
UniProt P25325: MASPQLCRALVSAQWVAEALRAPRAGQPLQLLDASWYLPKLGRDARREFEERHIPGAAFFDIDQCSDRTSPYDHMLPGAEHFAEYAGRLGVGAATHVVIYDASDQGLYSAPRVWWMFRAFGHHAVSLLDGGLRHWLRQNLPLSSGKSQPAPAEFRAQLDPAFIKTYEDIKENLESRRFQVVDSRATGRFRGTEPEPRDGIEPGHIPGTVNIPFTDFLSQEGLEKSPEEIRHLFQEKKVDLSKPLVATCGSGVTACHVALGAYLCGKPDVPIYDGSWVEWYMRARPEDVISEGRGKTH
UniProt O95563: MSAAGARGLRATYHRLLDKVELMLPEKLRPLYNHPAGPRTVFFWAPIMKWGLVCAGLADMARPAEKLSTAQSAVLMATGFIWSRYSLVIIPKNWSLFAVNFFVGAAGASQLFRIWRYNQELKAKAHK
UniProt Q9NZB8: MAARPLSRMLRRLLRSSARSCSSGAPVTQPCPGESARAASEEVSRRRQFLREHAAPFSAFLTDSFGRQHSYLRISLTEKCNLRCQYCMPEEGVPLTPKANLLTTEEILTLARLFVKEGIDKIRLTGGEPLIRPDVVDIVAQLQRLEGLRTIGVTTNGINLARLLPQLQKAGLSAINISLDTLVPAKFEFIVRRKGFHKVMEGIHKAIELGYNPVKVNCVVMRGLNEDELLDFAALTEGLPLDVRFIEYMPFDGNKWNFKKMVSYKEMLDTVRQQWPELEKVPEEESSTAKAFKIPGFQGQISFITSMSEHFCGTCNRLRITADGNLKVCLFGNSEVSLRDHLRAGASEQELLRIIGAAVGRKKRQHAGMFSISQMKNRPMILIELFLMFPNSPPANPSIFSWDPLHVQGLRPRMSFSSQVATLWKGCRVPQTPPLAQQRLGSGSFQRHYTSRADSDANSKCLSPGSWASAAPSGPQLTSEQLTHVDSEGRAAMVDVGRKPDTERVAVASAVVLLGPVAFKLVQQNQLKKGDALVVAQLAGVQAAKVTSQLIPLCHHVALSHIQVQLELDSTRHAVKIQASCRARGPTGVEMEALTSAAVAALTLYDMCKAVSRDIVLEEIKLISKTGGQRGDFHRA
UniProt Q9NYP9: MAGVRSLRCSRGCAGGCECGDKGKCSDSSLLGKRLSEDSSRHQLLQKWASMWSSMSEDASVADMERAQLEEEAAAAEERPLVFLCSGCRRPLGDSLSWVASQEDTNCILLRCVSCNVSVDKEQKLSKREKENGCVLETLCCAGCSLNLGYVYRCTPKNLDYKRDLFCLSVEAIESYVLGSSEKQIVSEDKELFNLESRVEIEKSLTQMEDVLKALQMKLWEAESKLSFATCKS
UniProt Q9BV20: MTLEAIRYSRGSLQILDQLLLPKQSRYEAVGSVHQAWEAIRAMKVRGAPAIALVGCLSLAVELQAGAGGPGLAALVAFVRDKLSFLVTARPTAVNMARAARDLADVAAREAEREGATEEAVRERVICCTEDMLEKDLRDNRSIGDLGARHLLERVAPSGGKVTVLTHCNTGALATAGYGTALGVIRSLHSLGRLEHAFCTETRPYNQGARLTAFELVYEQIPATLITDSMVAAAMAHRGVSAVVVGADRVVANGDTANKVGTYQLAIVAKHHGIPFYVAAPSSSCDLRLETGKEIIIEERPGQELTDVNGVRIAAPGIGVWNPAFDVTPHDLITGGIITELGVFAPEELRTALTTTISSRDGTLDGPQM
UniProt Q13724: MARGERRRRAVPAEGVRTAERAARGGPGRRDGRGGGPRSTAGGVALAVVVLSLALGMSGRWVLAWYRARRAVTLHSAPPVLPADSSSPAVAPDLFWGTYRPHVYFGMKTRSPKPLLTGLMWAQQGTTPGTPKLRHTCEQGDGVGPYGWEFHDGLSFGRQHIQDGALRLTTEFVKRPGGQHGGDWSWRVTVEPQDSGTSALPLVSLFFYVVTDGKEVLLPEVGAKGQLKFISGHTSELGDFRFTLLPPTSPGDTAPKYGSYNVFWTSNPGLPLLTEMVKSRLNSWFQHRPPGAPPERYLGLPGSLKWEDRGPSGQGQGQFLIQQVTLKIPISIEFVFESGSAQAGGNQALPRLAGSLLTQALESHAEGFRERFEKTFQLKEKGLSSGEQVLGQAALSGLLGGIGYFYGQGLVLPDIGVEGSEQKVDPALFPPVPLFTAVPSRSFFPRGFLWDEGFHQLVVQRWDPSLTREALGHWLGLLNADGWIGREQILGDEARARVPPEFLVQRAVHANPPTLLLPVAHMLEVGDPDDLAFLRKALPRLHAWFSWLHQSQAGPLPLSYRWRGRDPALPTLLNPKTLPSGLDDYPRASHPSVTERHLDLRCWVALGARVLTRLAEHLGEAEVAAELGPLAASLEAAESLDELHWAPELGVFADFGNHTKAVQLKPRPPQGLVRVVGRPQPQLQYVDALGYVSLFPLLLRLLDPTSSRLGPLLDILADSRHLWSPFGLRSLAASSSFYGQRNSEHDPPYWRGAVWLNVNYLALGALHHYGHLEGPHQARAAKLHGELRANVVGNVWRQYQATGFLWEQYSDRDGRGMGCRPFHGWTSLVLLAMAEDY

Compound: CC(C)C1=C2N=C(C=C(N2N=C1)NCC3=CC=CC=C3)NCCCCCCN
Experiment: log2 fold change, soluble protein after heating vs DMSO (PISA); higher = thermal stabilisation; K562 cells, 10 uM, 30 min; active = over 0.2 and 3.5 SD of the protein, either way, in both replicates (recomputed)
Method in brief: (§1)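 K562 cells at 2×10^6 cells/mL were treated for 30 min with 10 μM compound, and aliquots were heated for 3 min over 48°C-58°C before pooling. Extraction used PBS with 0.5% NP-40 at 4°C, and soluble protein was the supernatant after 21,000xg for 90 min, measured by TMTpro 16plex LC-MS/MS with channel sums equalised. Thermal stability values, relative to control samples and from duplicates, are log2 fold changes.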

log2 fold change, inactive:
MIOS (UniProt Q9NXC5) 0.066
MLLT1 (UniProt Q03111) -0.124
MRPL37 (UniProt Q9BZE1) 0.028
MRPL30 isoform 2 (UniProt Q8TCC3) -0.026
MLEC (UniProt Q14165) -0.04
MRPL24 (UniProt Q96A35) 0.138
MMUT (UniProt P22033) -0.004
MRPL39 (UniProt Q9NYK5) -0.053
MRPL54 (UniProt Q6P161) -0.025
MRPL17 (UniProt Q9NRX2) -0.015
MPG (UniProt P29372) -0.02
MRPL48 (UniProt Q96GC5) 0.009
MRM3 (UniProt Q9HC36) 0.018
MRPL20 (UniProt Q9BYC9) 0.007
MRPL49 (UniProt Q13405) 0.054
MRPL4 (UniProt Q9BYD3) -0.026
MPZL1 (UniProt O95297) 0.175
MOB1B isoform 2 (UniProt Q7L9L4) 0.002
MPRIP isoform 2 (UniProt Q6WCQ1) -0.033
MRPL44 (UniProt Q9H9J2) -0.006
MRPL21 (UniProt Q7Z2W9) 0.061
MICOS10 (UniProt Q5TGZ0) -0.063
MRPL40 (UniProt Q9NQ50) 0.013
MMGT1 (UniProt Q8N4V1) -0.01
MINPP1 (UniProt Q9UNW1) 0.061
MRE11 isoform 3 (UniProt P49959) 0.108
MPST isoform 2 (UniProt P25325) 0.044
MRPL11 (UniProt Q9Y3B7) -0.021
MRPL12 (UniProt P52815) 0.014
MPC2 (UniProt O95563) 0.006
MOCS1 isoform 8 (UniProt Q9NZB8) 0.025
MIS18A (UniProt Q9NYP9) -0.032
MRI1 (UniProt Q9BV20) 0.039
MOGS (UniProt Q13724) -0.118
MRPL45 (UniProt Q9BRJ2) 0
MRPL43 isoform 4 (UniProt Q8N983) 0.014
MINDY3 (UniProt Q9H8M7) 0.006
MRPL13 (UniProt Q9BYD1) 0.063

Compound: CC(C)C[C@@H](C=O)NC(=O)[C@H](CC(C)C)NC(=O)[C@H](CC(C)C)NC(=O)OCc1ccccc1
Experiment: as above
Method in brief: as §1

log2 fold change, inactive:
MIOS (UniProt Q9NXC5) 0.057
MLLT1 (UniProt Q03111) 0.144
MRPL37 (UniProt Q9BZE1) 0.132
MRPL30 isoform 2 (UniProt Q8TCC3) 0.132
MLEC (UniProt Q14165) -0.003
MRPL24 (UniProt Q96A35) 0.065
MMUT (UniProt P22033) 0.047
MRPL39 (UniProt Q9NYK5) 0.066
MRPL54 (UniProt Q6P161) 0.211
MRPL17 (UniProt Q9NRX2) 0.12
MPG (UniProt P29372) 0.043
MRPL48 (UniProt Q96GC5) 0.062
MRM3 (UniProt Q9HC36) 0.11
MRPL20 (UniProt Q9BYC9) 0.075
MRPL49 (UniProt Q13405) 0.23
MRPL4 (UniProt Q9BYD3) 0.022
MPZL1 (UniProt O95297) 0.069
MOB1B isoform 2 (UniProt Q7L9L4) 0
MPRIP isoform 2 (UniProt Q6WCQ1) 0.083
MRPL44 (UniProt Q9H9J2) 0.048
MRPL21 (UniProt Q7Z2W9) 0.038
MICOS10 (UniProt Q5TGZ0) -0.109
MRPL40 (UniProt Q9NQ50) 0.224
MMGT1 (UniProt Q8N4V1) -0.056
MINPP1 (UniProt Q9UNW1) -0.011
MRE11 isoform 3 (UniProt P49959) 0.002
MPST isoform 2 (UniProt P25325) 0.04
MRPL11 (UniProt Q9Y3B7) 0.043
MRPL12 (UniProt P52815) -0.027
MPC2 (UniProt O95563) -0.025
MOCS1 isoform 8 (UniProt Q9NZB8) 0.006
MIS18A (UniProt Q9NYP9) -0.015
MRI1 (UniProt Q9BV20) -0.06
MOGS (UniProt Q13724) 0.012
MRPL45 (UniProt Q9BRJ2) 0.06
MRPL43 isoform 4 (UniProt Q8N983) 0.067
MINDY3 (UniProt Q9H8M7) 0.057
MRPL13 (UniProt Q9BYD1) 0.076
